PubChem BioAssay AID1259424 – University of Nebraska Medical Center | 2018

Assay: 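Find knockdowns that reproduce the expression shifts seen after KSR1 loss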 (primary screen)
System: human HCT116 colon cancer cells
Reagents: siRNA pool against human genes, 50 nM
Read-out: 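Six signature mRNAs by branched-DNA multiplex assay, scaled to two housekeeping genes and non-targeting median, log2; matched to mean KSR1 knockdown profile by Pearson correlation and euclidean distance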
Reading the numbers: mean correlation with KSR1 profile and KSR1 correlation: higher = expression change more like KSR1 knockdown; mean distance from KSR1 profile: higher = expression change less like KSR1 knockdown
The deposit covers about 14,000 reagents; below is a random part of them. 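Higher correlation or smaller distance means closer resemblance to KSR1 loss; control wells, including KSR1 knockdowns, recur on many plates.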 The numbers tell different reagents against one gene apart. Some reagents were tested in more than one well and are listed for each. Further read-outs or replicates are left out here. Not given: the time to read-out.

gene symbol | reagent | mean correlation with KSR1 profile | mean distance from KSR1 profile | KSR1 correlation, replicate 1 | KSR1 correlation, replicate 2
TNF (tumor necrosis factor) | 1 | 0.188 | 2.67 | 0.336 | 0.324
CASZ1 (castor zinc finger 1) | 1 | -0.266 | 1.57 | 0.0416 | -0.616
H2BC14 (H2B clustered histone 14) | 1 | 0.0254 | 3.58 | 0.39 | 0.0312
HEXA (hexosaminidase subunit alpha) | 1 | -0.0277 | 2.69 | 0.15 | -0.271
PLCL1 (phospholipase C like 1 (inactive)) | 1 | -0.444 | 2.17 | -0.319 | -0.366
SRCIN1 (SRC kinase signaling inhibitor 1) | 1 | 0.305 | 1.86 | 0.284 | 0.15
ADGRV1 (adhesion G protein-coupled receptor V1) | 1 | 0.306 | 2.35 | 0.259 | 0.104
ZNF132 (zinc finger protein 132) | 1 | -0.546 | 4.3 | -0.486 | -0.511
CPSF1 (cleavage and polyadenylation specific factor 1) | 1 | -0.603 | 2.29 | -0.655 | -0.663
XIAP (X-linked inhibitor of apoptosis) | 1 | 0.368 | 1.04 | 0.315 | 0.299
RBM15B (RNA binding motif protein 15B) | 1 | 0.303 | 2.12 | 0.145 | 0.0594
EHMT2 (euchromatic histone lysine methyltransferase 2) | 1 | -0.297 | 1.67 | -0.377 | -0.174
PGPEP1 (pyroglutamyl-peptidase I) | 1 | -0.128 | 1.41 | 0.174 | -0.00323
PTGS1 (prostaglandin-endoperoxide synthase 1) | 1 | -0.254 | 2.15 | -0.231 | -0.477
KCNIP2 (potassium voltage-gated channel interacting protein 2) | 1 | 0.282 | 2.06 | -0.00524 | 0.32
ARL4C (ARF like GTPase 4C) | 1 | -0.432 | 3.06 | -0.399 | -0.453
CTSE (cathepsin E) | 1 | 0.38 | 2.38 | 0.409 | 0.199
RANGRF (RAN guanine nucleotide release factor) | 1 | 0.298 | 0.851 | -0.27 | 0.21
ATF3 (activating transcription factor 3) | 1 | 0.26 | 1.33 | 0.325 | 0.465
FABP6 (fatty acid binding protein 6) | 1 | -0.748 | 2.09 | -0.796 | -0.6
ATAD5 (ATPase family AAA domain containing 5) | 1 | 0.0228 | 1.71 | 0.0906 | -0.145
IMP3 (IMP U3 small nucleolar ribonucleoprotein 3) | 1 | 0.63 | 3.84 | 0.668 | 0.45
FUZ (fuzzy planar cell polarity protein) | 1 | 0.745 | 4.34 | 0.346 | 0.713
PPDPF | 1 | -0.197 | 2.68 | -0.311 | -0.344
MICAL3 | 1 | -0.61 | 2.92 | -0.587 | -0.641
MICAL3 | 2 | -0.446 | 4.09 | -0.2 | -0.758
ZNF527 (zinc finger protein 527) | 1 | 0.0272 | 2.39 | 0.0819 | 0.275
MYL9 (myosin light chain 9) | 1 | 0.608 | 0.946 | 0.653 | 0.176
DDX42 (DEAD-box helicase 42) | 1 | 0.256 | 3.21 | 0.237 | 0.311
CCNK (cyclin K) | 1 | -0.572 | 5.7 | -0.601 | -0.538
EDC3 (enhancer of mRNA decapping 3) | 1 | 0.351 | 2.9 | 0.487 | 0.119
DEFA5 (defensin alpha 5) | 1 | -0.0885 | 2.11 | 0.301 | -0.281
SNCG (synuclein gamma) | 1 | -0.327 | 4.65 | -0.223 | -0.28
DLX1 (distal-less homeobox 1) | 1 | 0.758 | 0.835 | 0.764 | 0.674
XRN1 (5'-3' exoribonuclease 1) | 1 | 0.646 | 1.37 | 0.543 | 0.813
RXFP2 (relaxin family peptide receptor 2) | 1 | 0.431 | 1.77 | 0.368 | 0.319
CTSO (cathepsin O) | 1 | -0.954 | 3.88 | -0.953 | -0.874
MOV10L1 (Mov10 like RNA helicase 1) | 1 | 0.0894 | 2.7 | 0.369 | -0.0598
CCR9 (C-C motif chemokine receptor 9) | 1 | 0.526 | 1.58 | 0.516 | 0.594
KCNIP4 (potassium voltage-gated channel interacting protein 4) | 1 | 0.573 | 1.72 | 0.0708 | 0.253
OLFM1 (olfactomedin 1) | 1 | -0.642 | 2.4 | -0.681 | -0.497
OLFM1 (olfactomedin 1) | 1 | -0.69 | 3.21 | -0.598 | -0.721
GRK5 (G protein-coupled receptor kinase 5) | 1 | 0.682 | 1.38 | 0.855 | 0.675
GRK5 (G protein-coupled receptor kinase 5) | 1 | 0.663 | 1.27 | 0.659 | 0.441
SLC26A10P | 1 | 0.301 | 2.41 | 0.279 | 0.0617
ZRANB2 (zinc finger RANBP2-type containing 2) | 1 | -0.36 | 2.31 | -0.284 | -0.214
EPHX3 (epoxide hydrolase 3) | 1 | -0.0135 | 3.1 | 0.154 | 0.0529
OR1D2 (olfactory receptor family 1 subfamily D member 2) | 1 | 0.489 | 1.47 | 0.563 | 0.547
INSL5 (insulin like 5) | 1 | 0.399 | 1.55 | 0.463 | 0.359
ATP6V0A2 (ATPase H+ transporting V0 subunit a2) | 1 | -0.119 | 1.31 | -0.154 | -0.345
